PubChem BioAssay AID1508600 (Functional Genomics Laboratory (NCATS/FGL), 2020)
Hit rate of the full screen: of about 53,000 sequences, about 3,700 (7%) were called active.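 Rule for the calls: active = gene knockdowns whose robust z-score for IL-1 alpha signal is at least 2 or at most -2, so actives lie on both sides; inactive = the rest.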 The list shows a part of the results.

test: Components of the Cytosolic LPS Sensing Pathway: Gene Identification via Genome-wide siRNA Screen; settings: RAW264.7 macrophages, IL-1a HTRF, actives lie on both sides, screened at 100 nM (by protocol), cells primed 5 h with Pam3CSK4 first;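 note: robust z of the log signal after scaling to non-targeting control siRNA wells of the plate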
In short: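 Supernatant IL-1a by HTRF from RAW264.7 cells primed with Pam3CSK4 (5 hours) and transfected with LipidA (24 hour) after 48h siRNA knockdown at 100 nM; cell viability checked with CellTiter-Glo.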

Row | Sequence | z-score
1 | GGCGAACCUCUUCUCUGGATT against Glcci1 | inactive: 0.408
2 | CGAGCCCAUGUCAGAUCAGTT against Minar1 | active: -2.33
3 | GGAGGAGAAAACAGGAAUUTT against H2-Eb1 | inactive: -0.03
4 | GGGCAGAUCCUAAUAAGCATT against Irs3 | inactive: -1.21
5 | GAAUAAAUCAGACCACAAATT against Aamdc | inactive: -0.786
6 | GGGUAUUUUGACAAUUUGGTT against Lrig3 | inactive: -0.576
7 | GCAACAUCAGGUAACCUUUTT against Zfp526 | inactive: 1.43
8 | GGAGCAGAUGGUCCAUUGUTT against Ly6g5c | inactive: 0.434
9 | GCAGAGCGAUUAUAUGGACTT against Rnpepl1 | inactive: -0.308
10 | GGAGGCUCUAAAGAGACACTT against Olfr498 | inactive: 1.36
11 | CCCAAACAUUGAAGCUCUGTT against Fez1 | inactive: 0.539
12 | GCUGCUUCAUGCAAGACCUTT against Zswim1 | inactive: -0.591
13 | GGAUGAUGGAAUAUCUCAATT against Pcdhb10 | inactive: 1.01
14 | GGAGGAAUUCUCCUUAUUCTT against Cnnm3 | inactive: 0.718
15 | GGUUCUGUACCAAUGAGUCTT against Lhpp | inactive: -1.65
16 | GGUUUAAGAAGAUUGCUUATT against Apool | inactive: -0.516
17 | GGAGCUUGAAUAUGUUCUATT against Capn9 | inactive: 0.0695
18 | GGAUUUCGAGAACAACCUCTT against Cd55 | inactive: 0.582
19 | CGGAUUUACACCAGUACCATT against Zfp868 | inactive: -0.187
20 | CCAAAACACUACCAAUAAUTT against Tinag | inactive: 0.329
21 | GGCAGAUGCUGAAACACUGTT against Tasor2 | inactive: 0.794
22 | GCCGGAUGAAGGACUUUACTT against Dcc | inactive: -1.98

Row | Sequence | z-score
23 | GCCCAAUUUUACAUUGUUUTT against Gpx1 | inactive: 1.24
24 | GGUUUUCAUUGCCCAGUCCTT against Rbm45 | inactive: -0.143
25 | CCUUCCAAUCUGGUUAAGUTT against Spock1 | inactive: 1.26
26 | GGUAUUCUUCGAAUUUUUCTT against Egln1 | inactive: -0.691
27 | GGAUGGUAGCAGCAACAACTT against Grem2 | inactive: -1.91
28 | GGAUGAUAUAGUUUGUACCTT against Kctd7 | inactive: 0.258
29 | GCAGAUGGUACUACUGAGCTT against Egfl7 | inactive: -1.71
30 | GCUUCUCUACACCACAGACTT against Olfr796 | inactive: -0.0426
31 | GGACUUCAGUUACAACCGGTT against Nr1h3 | inactive: -0.174
32 | GGCCGUGUUAAGGAAUCUGTT against Cidea | inactive: 0.653
33 | GCCAAAGCAAGAUCCCACUTT against Clec18a | inactive: -0.363
34 | GCAAAGCUACUCACUUCUUTT against Nck2 | inactive: 1.23
35 | GCAGAGAUUACACAAAUAGTT against Brd7 | inactive: -0.513
36 | CGUCCCUAGUAUAAAAAGATT against Cxxc5 | inactive: -0.273
37 | GGACUGUUCUUUCAAUAAGTT against Disp2 | inactive: 0.294
38 | GGCUCUAUCUUAAAAUAACTT against 4930542C12Rik | inactive: 0.125
39 | CCCAAUUAAAUUUGAGGGUTT against Pdia4 | inactive: 0.592
40 | GGAUAAAAUUGCUUUACUGTT against Srek1ip1 | active: 2.63
41 | CCGAGAACUUGACUCUUCATT against Ppp1r15b | inactive: 0.923
42 | GGCUAGAAUUCAGAGUUAATT against Abca13 | inactive: 0.188
43 | GACUGCUAAACAAUAUGCUTT against Shtn1 | inactive: 0.116
44 | GGCUAUGUCAUUUACAGGATT against Rpl15 | inactive: 0.838

Taken from above.
For z-score, GGAUGGUAGCAGCAACAACTT against Grem2 is listed with inactive: -1.91
For z-score, GGGCAGAUCCUAAUAAGCATT against Irs3 is listed with inactive: -1.21
For z-score, GGAUGAUGGAAUAUCUCAATT against Pcdhb10 is listed with inactive: 1.01
For z-score, CCUUCCAAUCUGGUUAAGUTT against Spock1 is listed with inactive: 1.26
For z-score, GCAGAGCGAUUAUAUGGACTT against Rnpepl1 is listed with inactive: -0.308
For z-score, CCAAAACACUACCAAUAAUTT against Tinag is listed with inactive: 0.329

Next part

Row | Sequence | z-score
45 | CCAGGUGUAACAAAAAAGATT against Dtl | inactive: 1.09
46 | GGUAUUCACUGUAUUUAACTT against Tspan8 | inactive: 1.97
47 | GGCUGAAAGCAAAACUUAATT against Klhl4 | inactive: 1.02
48 | GGAGGUUCUUCAGUACUGCTT against Aplp2 | inactive: 1.64
49 | GCUGUAGCUUCGGGCAAAGTT against Crybg3 | inactive: 0.0447
50 | GCAGGAGCUGAAGCAAAGATT against Svbp | inactive: -0.392
51 | GGAAAUAAAUGAGUGUUUGTT against Slc35c2 | inactive: -0.0605
52 | CCUAAAGCAUUGUUCAUAGTT against Ddo | inactive: 0.866
53 | GGAUGAGCUAAAUAAAGCUTT against Slc6a15 | inactive: -0.279
54 | GCAAUGUGUAUCAGCCGACTT against Gprc5b | active: 3.38
55 | CGACAGACAUCGCUAUAAUTT against Gm11437 | inactive: -0.296
56 | GGACUUUGUAACUAAUACCTT against Slco2b1 | inactive: 0.914
57 | GAUAUGUGUACACUUCUGCTT against Vmn1r218 | active: -2.08
58 | GGAUCGAUAAACAAAUAAGTT against Ano4 | inactive: 0.557
59 | GGAAAGAAACAAGACAGAATT against Cul3 | inactive: -0.211
60 | GGAUCGUGAGGAUCAAUCCTT against Myh14 | inactive: -0.0513
61 | GACAGGUCAUGAAAAUGAGTT against Smurf2 | inactive: 0.772
62 | GCAAGAUGAGAAGGAUUUUTT against Zfp691 | inactive: 0.591
63 | CCUCUGAGAAGGAGAUACATT against Hsd17b10 | inactive: -0.952
64 | GGAGCAAGGAAAGUGGCUGTT against Oma1 | inactive: -0.0166
65 | GGAUGAUAUAGUAUCUACGTT against Pyurf | inactive: 1.39
66 | GGUUGAAUUAUACACAAAGTT against Tmem202 | inactive: -8.3e-05

Row | Sequence | z-score
67 | GCCAACAAUAUAAUUCAAGTT against Abca5 | inactive: 1.64
68 | GCAUACGAUAUCACCAUAUTT against Dsg1a | inactive: 0.173
69 | GGUAGAAGAAUUCAGUUUUTT against Smpd3 | inactive: 0.528
70 | GCUCAGUCUCUUGGGUGGUTT against Cel | active: 2.27
71 | GGCUUUCUCACAUAAGAGCTT against Zbtb22 | inactive: -1.58
72 | GGGUAUUAUAAAAACCCAGTT against Noct | inactive: 0.57
73 | GGCAACAAUAGUUCAGAAGTT against Rps6ka5 | inactive: 1.5
74 | GCUAGCCAUGGUUACCCACTT against Slc39a3 | inactive: -0.818
75 | GAUGCUGUAAUCUUGUGAATT against Lce1a1 | inactive: 1.14
76 | CCUGUUAAUUGAUUACCUUTT against Pla2r1 | inactive: 1.03
77 | CCUCGUUACAUCCUCCCUGTT against Pold1 | inactive: -0.142
78 | CCUCCAAGAAGGAUUCCAGTT against Lmf2 | inactive: -1.34
79 | CCAACUUAUCAACAUCCGGTT against Plekha6 | inactive: -0.0445
80 | GGAAAAAGCAUAGAUAGGUTT against Amigo3 | inactive: -0.347
81 | GGAGAAAAUAAACUCUCUCTT against Capns1 | inactive: 1.82
82 | GGAAAAAUCCAAGAAGCAATT against Zc3h11a | inactive: -1.09
83 | GCAUUUCUUUCUUGCCUUCTT against Olfr1276 | inactive: 0.128
84 | GGCAACAUGAUGAUUAUAGTT against Olfr1220 | inactive: -0.359
85 | GGCCAUCAAAUCUAUAUACTT against Sucnr1 | inactive: -0.216
86 | GGAAGAGCUUCAUCAGCCATT against Acoxl | inactive: 0.0267
87 | GGCUGAGUUUAUUUUUGAGTT against Heatr5a | inactive: -0.0804
88 | GAUUUUGGGAAUAUAGUGCTT against Klra16 | inactive: 0.451

Row | Sequence | z-score
89 | GGAGGUGUUUUAUAUGAACTT against Efcab7 | inactive: 0.957
90 | GGCACUGAUAAGAAGUACCTT against Dnah1 | inactive: 0.772
91 | GCUCAGAAAUCGGCUCAGATT against Ssbp2 | inactive: -1.66
92 | GGUGGUUGAAAAGAAAACUTT against Hspa5 | inactive: -1.02
93 | GCGAAUUGAAGGCUCGGGATT against Dnm2 | inactive: 0.164
94 | GCUAUCACCACAACUACCATT against Cyp46a1 | inactive: -0.554
95 | CCGUGUCCAACAUUCUCUCTT against Tas1r2 | inactive: -1.1
96 | GCAGAUCAGAAGAAAUUUGTT against Jmy | inactive: 1.22
97 | GCAGCAACAAGAAAUCAGCTT against Bpifa3 | inactive: 0.308
98 | GGAGAAAAUGCAGUGUGAGTT against Llph | inactive: -0.673
99 | CGAUUUAUUCUGCUAUUGGTT against Pla2g7 | inactive: 0.61
100 | GCAUCCCUUCCGAGAAACATT against Bag6 | inactive: 0.916
101 | GCAGGAAGUAAAAUCUCUUTT against Tmem183a | inactive: 0.707
102 | GCGUAUAUAUACUUCACUGTT against Stxbp3 | inactive: -0.458
103 | CCGUAAUCUGGUUGGAUUUTT against Ccdc87 | inactive: 1.92
104 | GGAGCCACCACAACUAUAATT against F2rl2 | inactive: 0.394
105 | GCAAAACAGUGUUCUAUUATT against Skap2 | inactive: 0.135
106 | GGAUGCAUUCAUGAGUAUUTT against Ifng | inactive: 0.325
107 | CCCAAGAAGUUUUAUUCUGTT against Zbbx | inactive: -0.221

Two entries picked at random from the list so far:
Row | Sequence | z-score
94 | GCUAUCACCACAACUACCATT against Cyp46a1 | inactive: -0.554
98 | GGAGAAAAUGCAGUGUGAGTT against Llph | inactive: -0.673
